These are yes or no findings as the source states them, for the method shown. Binding seen in cells or lysates may run through a third protein. Some results given as binding are weak or reduced against the parent protein; the word gives no strength. For part of these data: Where a sequence is shown, tags or fusion partners need not be part of it.
Tests used:
[1] = target: T1, IRF-4-FLAG (UniProt Q15306); experiment: co-IP; DG75 cells co-transfected with IRF-4-FLAG and pA3M-LANA or vector, 48 hr; RIPA lysates; IP with anti-FLAG (M2), immunoblotting
T1 sequence: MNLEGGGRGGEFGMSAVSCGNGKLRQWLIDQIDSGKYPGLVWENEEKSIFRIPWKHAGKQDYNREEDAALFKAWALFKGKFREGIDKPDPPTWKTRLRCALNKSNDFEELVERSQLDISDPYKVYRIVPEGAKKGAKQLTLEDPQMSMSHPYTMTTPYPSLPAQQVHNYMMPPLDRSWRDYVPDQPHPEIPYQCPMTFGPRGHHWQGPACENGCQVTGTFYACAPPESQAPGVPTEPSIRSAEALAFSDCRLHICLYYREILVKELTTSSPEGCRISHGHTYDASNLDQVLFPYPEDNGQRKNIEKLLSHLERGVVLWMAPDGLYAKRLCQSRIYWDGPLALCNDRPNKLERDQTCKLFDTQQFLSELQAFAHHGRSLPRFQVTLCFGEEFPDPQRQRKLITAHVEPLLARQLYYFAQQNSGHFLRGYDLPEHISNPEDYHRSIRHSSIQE

Amino acid sequences for entries named in this document (tags omitted).
UniProt Q9QR71: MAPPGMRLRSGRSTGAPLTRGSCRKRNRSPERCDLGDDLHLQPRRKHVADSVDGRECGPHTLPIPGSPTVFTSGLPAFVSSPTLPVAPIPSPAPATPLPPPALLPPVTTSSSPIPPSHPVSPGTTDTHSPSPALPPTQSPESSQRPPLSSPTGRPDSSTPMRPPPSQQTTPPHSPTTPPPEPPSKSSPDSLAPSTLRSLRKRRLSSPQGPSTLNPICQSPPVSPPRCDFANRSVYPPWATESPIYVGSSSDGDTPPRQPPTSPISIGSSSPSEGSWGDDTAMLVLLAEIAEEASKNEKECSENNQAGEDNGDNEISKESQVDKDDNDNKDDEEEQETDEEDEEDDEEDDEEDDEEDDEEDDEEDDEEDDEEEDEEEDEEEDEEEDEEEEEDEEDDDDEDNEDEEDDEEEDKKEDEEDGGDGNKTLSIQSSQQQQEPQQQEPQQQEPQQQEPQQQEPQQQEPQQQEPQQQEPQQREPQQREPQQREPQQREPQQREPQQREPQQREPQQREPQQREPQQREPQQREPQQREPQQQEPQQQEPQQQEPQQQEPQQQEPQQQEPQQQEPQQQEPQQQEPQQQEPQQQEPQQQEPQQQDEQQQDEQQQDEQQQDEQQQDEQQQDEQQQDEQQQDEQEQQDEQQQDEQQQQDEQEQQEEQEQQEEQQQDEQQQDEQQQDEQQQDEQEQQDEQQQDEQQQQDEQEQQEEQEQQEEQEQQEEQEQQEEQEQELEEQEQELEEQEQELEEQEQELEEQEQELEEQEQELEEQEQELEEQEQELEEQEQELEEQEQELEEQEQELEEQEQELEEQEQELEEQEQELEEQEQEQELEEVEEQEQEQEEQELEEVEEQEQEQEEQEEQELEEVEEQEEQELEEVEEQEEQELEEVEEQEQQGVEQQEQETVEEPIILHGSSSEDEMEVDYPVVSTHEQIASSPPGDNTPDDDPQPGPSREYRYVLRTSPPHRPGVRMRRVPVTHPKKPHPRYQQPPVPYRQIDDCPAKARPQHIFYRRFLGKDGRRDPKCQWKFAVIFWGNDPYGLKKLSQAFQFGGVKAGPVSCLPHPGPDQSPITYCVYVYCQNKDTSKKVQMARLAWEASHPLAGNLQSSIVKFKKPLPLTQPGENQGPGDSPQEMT

[2] = target: T2, endogenous IRF-4 of BC3 cells (human (endogenous in BC3)) (UniProt Q15306); experiment: co-IP; BC3 (PEL) cell lysates, endogenous proteins; IP with anti-LANA antibody or anti-IRF-4 antibody, control mouse serum / normal serum IgG preclear; immunoblotting
T2 sequence: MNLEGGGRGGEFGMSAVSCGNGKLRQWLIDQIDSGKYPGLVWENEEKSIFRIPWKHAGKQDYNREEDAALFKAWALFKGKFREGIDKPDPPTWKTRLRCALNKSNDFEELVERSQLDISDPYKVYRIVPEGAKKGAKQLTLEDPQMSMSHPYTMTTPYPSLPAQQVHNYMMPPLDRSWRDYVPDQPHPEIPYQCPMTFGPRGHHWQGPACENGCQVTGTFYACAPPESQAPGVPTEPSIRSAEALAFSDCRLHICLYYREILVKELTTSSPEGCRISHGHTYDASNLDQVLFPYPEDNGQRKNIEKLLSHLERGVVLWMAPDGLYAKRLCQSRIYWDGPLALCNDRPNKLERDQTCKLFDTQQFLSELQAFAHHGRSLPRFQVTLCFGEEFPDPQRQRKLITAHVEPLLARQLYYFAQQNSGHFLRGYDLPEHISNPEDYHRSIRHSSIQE

[3] = target: endogenous LANA of KSHV-positive BC3 cells (Kaposi's sarcoma-associated herpesvirus (KSHV) (endogenous in KSHV-positive BC3 cells)) (UniProt Q9QR71); experiment: as above

For “LANA full length in the pA3M vector (LANA-myc) (from UniProt Q9QR71 1-1129)”, the binding [1] was “binds”.

For “endogenous LANA of KSHV-positive BC3 cells (from UniProt Q9QR71 1-1129)”, the binding [2] was “binds”.

B1: endogenous IRF-4 of BC3 cells (protein, UniProt Q15306 1-451)
chain: MNLEGGGRGGEFGMSAVSCGNGKLRQWLIDQIDSGKYPGLVWENEEKSIFRIPWKHAGKQDYNREEDAALFKAWALFKGKFREGIDKPDPPTWKTRLRCALNKSNDFEELVERSQLDISDPYKVYRIVPEGAKKGAKQLTLEDPQMSMSHPYTMTTPYPSLPAQQVHNYMMPPLDRSWRDYVPDQPHPEIPYQCPMTFGPRGHHWQGPACENGCQVTGTFYACAPPESQAPGVPTEPSIRSAEALAFSDCRLHICLYYREILVKELTTSSPEGCRISHGHTYDASNLDQVLFPYPEDNGQRKNIEKLLSHLERGVVLWMAPDGLYAKRLCQSRIYWDGPLALCNDRPNKLERDQTCKLFDTQQFLSELQAFAHHGRSLPRFQVTLCFGEEFPDPQRQRKLITAHVEPLLARQLYYFAQQNSGHFLRGYDLPEHISNPEDYHRSIRHSSIQE
For B1, the binding [3] was “binds”.
